# Reference: paper PMC5996148
# Some of the results follow.
# Assays:
# Assay in all cases: protein microarray (ProtoArray v5.0), streptavidin-Alexa Fluor 647
# Conditions in all cases: 3'-biotin; 20 mM Tris (pH 7.5), 5 mM MgCl2, 100 mM KCl, 0.1% Tween-20, A/T-rich and random oligonucleotide blockers; temperature not stated; high values mean tight binding
# [1] = test system: Phospholysine phosphohistidine inorganic pyrophosphate phosphatase (human)
# [2] = test system: Pleckstrin homology domain-containing family J member 1 (human)
# [3] = test system: Podoplanin (human)
# [4] = test system: Polyamine-modulated factor 1 (human)
# [5] = test system: Potassium voltage-gated channel subfamily E member 2 (human)
# [6] = test system: Pre-mRNA-splicing factor ISY1 homolog (human)
# [7] = test system: Prenylated Rab acceptor protein 1 (human)
# [8] = test system: Probable ATP-dependent RNA helicase DDX6 (human)
# [9] = test system: Probable ergosterol biosynthetic protein 28 (human)
# [10] = test system: Proteasome subunit beta type-2 (human)
sequence,measurement,setting,value
GGGGACAGGGGTATGGGGAGGGG [G4-3 biotinylated (CtG)],binding signal,[1],-0.317 z-score
same,binding signal,[2],-0.351 z-score
same,binding signal,[3],-0.332 z-score
same,binding signal,[4],-0.335 z-score
same,binding signal,[5],-0.29 z-score
same,binding signal,[6],-0.343 z-score
same,binding signal,[7],-0.326 z-score
same,binding signal,[8],7.51 z-score
same,binding signal,[9],-0.328 z-score
same,binding signal,[10],-0.333 z-score
